The campaign covered roughly 360,000 compounds. About 9,100 (2.5%) were called active. The inconclusive results got no clear call from the source; some entries with a clear call stand among them for comparison. Cut-off read from the data, not from the text of the source: active = max response below about -50%; inconclusive = no clear call, values can overlap the other calls; inactive = above that.
biological target: D(3) dopamine receptor (Homo sapiens) (UniProt P35462); experiment: qHTS of D3 Dopamine Receptor Antagonist: qHTS; details: D3R cells, DiscoveRx beta-arrestin luminescence, antagonist mode; hits give low values
Source text: D3 DARs represent a very important target for the treatment of several neuropsychiatric disorders. Indeed, one of the most promising therapeutic applications for the D3 DAR is in the area of addiction and related disorders. […] These findings have been observed with a number of addictive substances including cocaine, amphetamine, nicotine, and alcohol. […] Antagonism of the D3 DAR may also be therapeutic in the treatment of schizophrenia or psychosis. […] Since the D3 DAR is expressed in areas of the CNS associated with the control of mood and emotion, it has been hypothesized that selective antagonism of the D3 DAR may be effective in treating psychosis without inducing the motor side effects typically seen with D2 DAR antagonists.
This part of the project aims to discover novel antagonist.
NIH Chemical Genomics Center [NCGC]
NIH Molecular Libraries Probe Centers Network [MLPCN]
Assay Submitter (PI): David Sibley, NINDS
Freshly passaged cells are plated in 1536 well white, solid bottom plates at a density of 1500 cells/well in 3microl of complete media. After an overnight incubation at 37 degrees C in 5% CO2, cells are loaded with 23nl of test compound from the compound library (as well as dopamine controls) using a 1536 pintool and incubated at 37 degrees C for 90 minutes. Two microliters of DiscoveRx reagent is then added to all cells, and they are incubated for an additional 30 - 60 minutes at room temperature. Following incubation, luminescence is measured on a ViewLux CCD-based luminometer reader using a 20 sec exposure time.
% is set by controls: 0 for no effect and ±100 for the full control effect.

The chains behind the UniProt entries cited, without tags or fusion partners.
UniProt P35462, whole entry, looked up: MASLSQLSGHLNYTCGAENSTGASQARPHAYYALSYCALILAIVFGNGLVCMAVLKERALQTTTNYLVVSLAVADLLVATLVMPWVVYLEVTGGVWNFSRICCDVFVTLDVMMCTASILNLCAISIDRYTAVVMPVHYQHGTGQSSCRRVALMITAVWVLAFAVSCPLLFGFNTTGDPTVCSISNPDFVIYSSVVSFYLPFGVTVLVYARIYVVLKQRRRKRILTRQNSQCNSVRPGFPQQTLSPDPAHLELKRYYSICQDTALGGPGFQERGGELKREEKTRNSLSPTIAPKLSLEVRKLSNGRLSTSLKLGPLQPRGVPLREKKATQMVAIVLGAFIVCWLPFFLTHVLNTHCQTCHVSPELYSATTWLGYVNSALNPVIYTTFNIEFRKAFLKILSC

Structure (SMILES) | max response, negative = inhibition
Cc1ccsc1C(=O)C1CCCN(Cc2ccn[nH]2)C1 (centres undefined) | active: -62.2%
NC(=O)c1ccc(N)nc1 | inactive: -16.7%
O=C(c1cc2cc(Cl)ccc2[nH]1)N1CCC2(CC1)OCCO2 | inactive: -9.1%
CN1CCN(c2cccc3c2C(=O)c2ccccc2C3=O)CC1 | inactive: -27.4%
Cc1cccc(N2CCc3c2nc2ccccc2c3N)c1 | inconclusive: -35.8%
C[C@]1(O)CCC2C3CC[C@H]4C[C@@H](OC(=O)[C@@H](N)CCCCN)CC[C@]4(C)C3CC[C@@]21C (some centres undefined) | inconclusive: -30.6%
Cc1[nH]c2ccccc2c1CCCNC1CCCCC1 | inconclusive: -36.6%
Fc1ccccc1N1CCN(Cc2ccc3c(c2)OCO3)CC1 | inconclusive: -49.9%
COc1ccc(O)c(CN2CCCC(C(=O)c3ccccc3SC)C2)c1 (centres undefined) | inconclusive: -33.2%
O=C(O)C1CC2(Cl)C(Cl)=C(Cl)C1(Cl)C2(Cl)Cl (centres undefined) | inconclusive: -32.3%
OCCN1C2CCC1CC(O)(c1ccc(F)cc1)C2 (centres undefined) | active: -68.3%
COc1ccc(-n2nnnc2C(C2CC2)N2CCC3(CC2)C(=O)NCN3c2ccccc2)cc1 (centres undefined) | inconclusive: -38.4%
O=C(COc1ccccc1)N1CCN(CC2CC3C=CC2C3)CC1 (centres undefined) | inconclusive: -49.4%
CN(C)CC1Oc2ccccc2OC1(O)c1ccccc1 (centres undefined) | active: -95.3%
C=Cc1cc(OC)c2c(c1)c(=O)oc1c2cc(OC)c2c(O)ccc(C3OC(C)C(O)C(C)(O)C3O)c21 (centres undefined) | inconclusive: -35.2%
Nc1ccc(N=Nc2ccccc2)cc1 | inconclusive: -38.2%
CN1CCN(Cc2ccccc2Sc2ccccc2)CC1 | active: -51.5%
c1cc2c(cc1CCNC1C3CC4CC(C3)CC1C4)OCO2 (centres undefined) | inconclusive: -32%
CCCCN1C(=O)/C(=C\c2ccco2)C(=O)N(CCc2ccccc2)C1=O | inconclusive: -42.4%
CCCCCCn1c(O)c(C=NC2CCN(Cc3ccccc3)CC2)c(=O)[nH]c1=O | inconclusive: -44.3%
Cc1ccsc1C(=O)C1CCCN(Cc2c(C)nn(C(C)C)c2C)C1 (centres undefined) | inconclusive: -33.1%
CCOC(=O)[C@]12Cc3cc4ccccc4cc3[C@H]1N(Cc1ccccc1)C(=O)c1ccccc12 | inconclusive: -41.8%
CC(C)(C)C(=O)O[C@H]1CC[C@@]2(C)C(=CC(=O)C3C2CC[C@]2(C)C(=O)CCC32)C1 (some centres undefined) | inactive: 23.5%

Structure (SMILES) | max response, negative = inhibition
CC1Oc2cc3c(-c4c(O)cc(O)c5c(O)c6c(cc45)OC(C)C(C)C6=O)c(O)cc(O)c3c(O)c2C(=O)C1C (centres undefined) | inconclusive: -46.4%
CCN1CCN(Cc2cc(Br)ccc2O)CC1 | active: -73.4%
COc1ccccc1C=C1C(=O)NC(=S)NC1=O | inactive: -22.5%
Cc1ccc(Cl)cc1N1CCN(CCN)CC1 | inconclusive: -42.4%
O=[N+]([O-])c1ccc(Nc2ccccc2)cc1 | inconclusive: -44.7%
O=C(Cc1ccccc1)OC(COCc1ccccc1)CN1CCOCC1 (centres undefined) | inconclusive: -41.4%
Cc1ccsc1C(=O)C1CCCN(Cc2cnn(C)c2)C1 (centres undefined) | inconclusive: -32.7%
CN(C)C(Cc1ccc(C#N)cc1)C(=O)c1ccccc1 (centres undefined) | inconclusive: -32.7%
Fc1ccc(CN2CCN(c3ccc(Cl)cc3)CC2)cc1 | active: -52%
CCCCC(CC)COCCCN=Cc1c(O)[nH]c(=S)[nH]c1=O (centres undefined) | inconclusive: -35%
O=c1[nH]c(=S)[nH]c(O)c1N=Nc1ccc2c(c1)OCO2 | inconclusive: -50%
Nc1c(C(=O)OC2CCCCC2)c2nc3ccccc3nc2n1CC1CCCO1 (centres undefined) | inactive: -9.32%
CC(C)Oc1cccc(NC(=O)c2cccn(Cc3ccc4c(c3)OC(F)(F)O4)c2=O)c1 | inactive: 1.94%
COc1nc2ccccc2nc1N1CC1 | inactive: -4.54%
CCOc1ccccc1N1C(=O)NC(=O)/C(=C/c2ccc3c4c(cccc24)CC3)C1=O | active: -52%
Cc1ccc(CN2CCN(Cc3ccccc3F)CC2)cc1 | inconclusive: -44.5%
Fc1cccc(F)c1CN1CCN(Cc2c(F)cccc2F)CC1 | active: -59.3%
COC(=O)C1=C(c2ccc(F)cc2OCc2ccccc2)C[C@@H]2CC[C@H]1N2C(=O)NCCOc1ccccc1Cl | inconclusive: -35.3%
Cc1ccc2nc(N3CCN(C)CC3)[nH]c2c1 | inconclusive: -30.2%
c1cc2n(c1)-c1c(ccc3c1OCO3)CNC2c1ccc2c(c1)OCO2 (centres undefined) | inconclusive: -43.5%
CCC(=O)N1CC(=O)Nc2ccc(F)cc2C1c1ccc(F)cc1 (centres undefined) | inactive: 11.2%
O=C(c1cccc2ccccc12)C1CCCN(C2CCC2)C1 (centres undefined) | active: -51.1%
CSc1ccc(CN2CCN(C(=O)COc3ccc(C)cc3)CC2)cc1 | inconclusive: -31.9%

By substructure, the entries above containing an aryl thioether with sulfur outside any ring
Structure (SMILES) | max response, negative = inhibition
COc1ccc(O)c(CN2CCCC(C(=O)c3ccccc3SC)C2)c1 (centres undefined) | inconclusive: -33.2%
CN1CCN(Cc2ccccc2Sc2ccccc2)CC1 | active: -51.5%
CSc1ccc(CN2CCN(C(=O)COc3ccc(C)cc3)CC2)cc1 | inconclusive: -31.9%

Continued:

Structure (SMILES) | max response, negative = inhibition
O=C(N/N=C/c1c(O)n(CCC2=CCCCC2)c(=O)[nH]c1=O)c1ccccc1 | active: -68.2%
C/C(=N\Nc1ccccc1)c1c(O)n(Cc2ccccc2)c(=O)[nH]c1=O | inconclusive: -30.1%
CCC1=Nc2cc(C(=O)N3CCC4(CC3)OCCO4)ccc2Sc2ccc(Br)cc21 | inactive: -7.51%
COc1ccc(CC2C(=O)N(C)C(=O)N(C)C2=O)c(OC)c1 | inconclusive: -33.6%
CC(C)COC(=O)c1ccccc1C(=O)OCC(C)C | inactive: -5.21%
Clc1cccc(CNCCc2c[nH]c3ccccc23)c1 | inconclusive: -42.8%
CCOC(=O)C(O)(c1ccc(NC(=S)NC(=O)c2ccc(Cl)cc2Cl)cc1)C(F)(F)F (centres undefined) | inconclusive: -31.9%
COC(=O)C1=C(c2c(C)noc2C)C[C@@H]2CC[C@H]1N2C(=O)N1CCCCC1 | inactive: 7.15%
CC(C)C(NC(=O)C(C(C)C)N(C)C)C(=O)N(C)C(C(=O)N1CCCC1C(=O)N1CCCC1C(=O)NCc1ccccc1)C(C)C (centres undefined) | inactive: -8.69%
COCc1ccc(CN2CCCC(C(=O)c3sccc3C)C2)o1 (centres undefined) | inconclusive: -31.9%
O=[N+]([O-])c1ccccc1Cl | inactive: -20%
Cc1ccsc1C(=O)C1CCCN(Cc2cc3ccccc3o2)C1 (centres undefined) | inconclusive: -38.2%
CC1=C(O)C(=O)C=C2C1=CC=C1C2(C)CCC2(C)C3CC(C)(C(=O)O)CCC3(C)CCC12C (centres undefined) | active: -80.9%
COc1ccc(C2=NCC(=S)Nc3ccc(Cl)cc32)cc1Cl | inconclusive: -31.8%
COc1ccc(/C=C2/C(=O)NC(=S)N(C3CC3)C2=O)cc1CN1C(=O)c2ccccc2C1=O | inconclusive: -30.7%
O=c1[nH]c2ccccc2n1CCCN1CCC(n2c(=O)[nH]c3cc(Cl)ccc32)CC1 | active: -103%
CN1CCN(c2cc(N3CCCC3)c([N+](=O)[O-])cc2F)CC1 | active: -78.5%
O=C(CN1CC=C(c2ccccc2)CC1)Nc1c(Cl)cccc1Cl | active: -70.7%
CN(C)c1cccc(CN2CCN(c3ccccc3)CC2)c1 | active: -85.2%
CN1CCN(c2nc3ccccn3c(=O)c2C=C2C(=O)N(C)C(=O)N(C)C2=O)CC1 | inconclusive: -34.2%
COC(=O)C(O)(c1ccc(NC(=S)NC(=O)c2ccc(Cl)cc2Cl)c(C)c1)C(F)(F)F (centres undefined) | inconclusive: -38%
O=C1C(Cl)=CC(=Nc2ccc(O)cc2)C=C1Cl | inconclusive: -33.6%
c1cc2c(cc1CN1CCNCC1)OCO2 | inactive: -25%

Structure (SMILES) | max response, negative = inhibition
COc1ccccc1N(CC(=O)NC1CCCC1)C(=O)c1cnn(C(C)C)c1 | inconclusive: -36.5%
COc1ccc(CN2CCCC(C(=O)c3ccccc3SC)C2)cc1O (centres undefined) | active: -60.7%
C=C1C(=O)O[C@@H]2C[C@@H](C)[C@@H]3C4OC4C(=O)[C@@]3(C)[C@@H](O)[C@H]12 (some centres undefined) | active: -91.1%
CCOC(=O)C1(CCc2ccccc2)CCN(Cc2ccco2)CC1 | inconclusive: -31.3%
CC1SC2(CN3CCC2CC3)NC1=O (centres undefined) | inconclusive: -30.9%
O=C(COc1ccccc1)N1CCN(CC2CC=CCC2)CC1 (centres undefined) | active: -56.6%
CCCOC(=O)c1c(N)n(Cc2cccs2)c2nc3ccccc3nc12 | inactive: 0.237%
COc1ccccc1CCNC1CCCCCC1 | inconclusive: -30.4%
COc1ccc(Br)cc1CN1CCN(CCO)CC1 | active: -86.7%
COc1cc2c(c(OC)c1O)-c1ccc(OC)c(=O)cc1C(NC(=O)C(F)(F)F)CC2 (centres undefined) | inconclusive: -36.9%
CC(Cc1ccccc1)[n+]1cc(/N=C(\[O-])Nc2ccccc2)on1 (centres undefined) | active: -54.1%
CCOC(=O)C1(CCc2ccccc2)CCN(Cc2csc(C(C)=O)c2)CC1 | inconclusive: -39.7%
CCCCCN1C(=O)c2ccccc2[C@@]2(C(=O)OCC)Cc3cc(Cl)ccc3[C@@H]12 | inconclusive: -43.2%
C=C(C)[C@@]12OC3(c4ccccc4)O[C@@H]1C1[C@@H]4O[C@]4(CO)[C@@H](O)[C@]4(O)C(=O)C(C)=C[C@H]4[C@@]1(O3)[C@H](C)[C@H]2OC(=O)/C=C/C=C/c1ccccc1 (some centres undefined) | active: -61.3%
COc1ccc(C(=O)C2CCCN(Cc3ccc(C)s3)C2)c(OC)c1 (centres undefined) | active: -68.9%
COC(=O)C1=C(c2c(C)noc2C)C[C@@H]2CC[C@H]1N2C(=O)NCc1ccc(F)cc1 | inconclusive: -35%
CC(C)=CCN1CC[C@@]2(C)c3cc(O)ccc3C[C@@H]1C2C (some centres undefined) | active: -57.9%
O=C1NC2C(=CC(O)C(O)C2O)c2cc3c(cc21)OCO3 (centres undefined) | inactive: 5.73%
CCC(=NCc1cc(OC)cc(OC)c1)c1c(O)n(C2CCCCC2)c(=O)[nH]c1=O | inactive: 0%
CC(=O)NC(Cc1ccc(N(CCCl)CCCl)cc1)C(=O)NC(CC(C)C)C(=O)O (centres undefined) | inactive: -5.37%

Reference: PubChem BioAssay AID652054 (National Center for Advancing Translational Sciences (NCATS), 2013)
